From publication PMC8935234 come the findings set out here.

By UniProt entry, the sequences of proteins in these tests, tags left out.
UniProt O95931: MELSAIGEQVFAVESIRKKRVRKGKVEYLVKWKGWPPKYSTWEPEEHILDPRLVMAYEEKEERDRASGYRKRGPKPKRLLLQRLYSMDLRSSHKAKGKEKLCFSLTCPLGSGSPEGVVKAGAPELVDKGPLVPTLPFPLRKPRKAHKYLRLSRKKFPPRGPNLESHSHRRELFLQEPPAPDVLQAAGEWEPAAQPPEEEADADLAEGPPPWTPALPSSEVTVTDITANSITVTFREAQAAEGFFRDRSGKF
UniProt Q9BY78: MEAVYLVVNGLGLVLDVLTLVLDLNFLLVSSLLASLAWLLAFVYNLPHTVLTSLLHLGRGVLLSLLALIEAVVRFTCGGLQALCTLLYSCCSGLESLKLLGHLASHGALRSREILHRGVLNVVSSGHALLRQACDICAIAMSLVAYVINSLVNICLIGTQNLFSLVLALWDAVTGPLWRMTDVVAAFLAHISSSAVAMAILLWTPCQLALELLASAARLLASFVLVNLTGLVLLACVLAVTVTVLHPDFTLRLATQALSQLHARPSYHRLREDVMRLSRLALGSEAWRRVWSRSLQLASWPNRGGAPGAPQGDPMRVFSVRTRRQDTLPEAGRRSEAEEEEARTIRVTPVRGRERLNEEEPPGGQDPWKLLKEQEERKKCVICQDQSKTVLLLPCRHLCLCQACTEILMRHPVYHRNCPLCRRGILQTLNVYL

In assay [1] the target is GST-CBX7 (UniProt O95931). The assay is described as follows: pull-down; GST or GST-CBX7 as bait; Flag-RNF26 in 786-O cells detected by western blot; only the target purified.
For assay [2], the target named is CBX7 (Chromobox protein homolog 7), endogenous in 786-O and A498 cells (human (endogenous in 786-O and A498)) (UniProt O95931). The assay is described as follows: co-IP; endogenous proteins; 786-O and A498 RIPA lysates immunoprecipitated with IgG and CBX7 or RNF26 antibodies on protein A+G beads, 4 °C overnight, 6 washes with RIPA buffer; western blot.
In assay [3] the target is CBX7 (Chromobox protein homolog 7), exogenously expressed in 293T cells (UniProt O95931). As to the kind of experiment: co-IP; 293T cells transfected with the indicated plasmids; RIPA lysate immunoprecipitated with IgG and CBX7 or Flag antibodies on protein A+G beads, 4 °C overnight, 6 washes with RIPA buffer; western blot.

These are yes or no findings as the source states them, for the method shown. Binding seen in cells or lysates may run through a third protein. Some results given as binding are weak or reduced against the parent protein; the word gives no strength.

As for “Flag-RNF26 in 786-O cells (from UniProt Q9BY78 1-433)”, in assay [1], the binding result was “binds”.

Regarding “RNF26 (ring finger protein 26), endogenous in 786-O and A498 cells (from UniProt Q9BY78 1-433)”, the binding result in assay [2] is recorded as “binds”.

In the case of “RNF26 (ring finger protein 26), exogenously expressed in 293T cells (from UniProt Q9BY78 1-433)”, in assay [3], the binding entry is on record as “binds”.
